Measurements from US20210393553A1, “PHARMACEUTICAL COMBINATIONS FOR THE TREATMENT OF PAIN” (IMUNEKS FARMA ILAC SANAYI VE TICARET A.S., priority 2018, published 2021).
Some results were stated once for a whole list of compounds, not compound by compound.

Tested on: female Albino Wistar rats
Assay: Hot plate test (heat induced pain model)
Settings: rat, in vivo

For `COc1cccc(C2(O)CCCCC2CN(C)C)c1` (stereo not shown) [Tramadol], the “heat induced pain reaction time” value was “less than 7 sec”.
